Measurements as given in patent US20130217613A1 (MARQUETTE UNIVERSITY, published 2013).

What was measured:
[1] = target: His-tagged RIIa domain from RSP7 (Chlamydomonas); experiment: Ni-NTA pulldown of co-expressed proteins, Coomassie gel
[2] = target: His-tagged RIIa domain from RSP7 (Chlamydomonas); experiment: Ni-NTA pulldown (discussion of Example 1)
[3] = target: His-tagged RIIa domain from RSP7 (Chlamydomonas); experiment: Ni-NTA pulldown (discussion of Example 2)
[4] = target: His-tagged RIIa domain from RSP7 (Chlamydomonas); experiment: Ni-NTA pulldown of co-expressed proteins

- binding [1]: no binding
Binder: PWLKEQAIGYLARGVVARRVVDKLVEDAA (peptide, not shown: a dimerising Fc or GST) [GST-tagged RSP3 280-308 (contains the Dpy-30-binding amphipathic helix AHD)]

- binding [2]: binds
- binding [3]: binds
- binding [4]: binds
- binding [1]: binds
B1: GST-tagged RSP3 96-180 (contains the RIIa-binding amphipathic helix AHR at a.a. 161-178) (protein, not shown: a dimerising Fc or GST)
chain: HIDIQTDVYLEELTDTVPEADTSTQTDAFLDRPPTPLFVPQKTGTDAITQIENGDLFDFDFEVEPILEVLVGKVLEQGLMEVLEE

No constants are given. Whether binding was seen depends on the method and setting. Binding seen in cells or lysates may run through a third protein. Binding calls can cover weak binding; strength is not graded here. Where a sequence is shown, tags or fusion partners need not be part of it. One block for each binder: values may come before it.
